Measured values reported in article PMC6433232, “Targeting mitochondria in cancer therapy could provide a basis for the selective anti-cancer activity” (PLoS ONE, 2019).

System: primary acute myeloid leukemia (AML) cells obtained from patients
Assay: Kinase inhibitor library screening with and without NSC130362, primary AML cells
Format: cell-based, Human
Settings: ratio of EC50 for inhibitor to EC50 for inhibitor/NSC130362 combination, NSC130362 10 μM

CC(C)n1nc(-c2cc3cc(O)ccc3[nH]2)c2c(N)ncnc21 [PP242]
EC50 decrease, fold (Screen N 1): 0.5 fold | EC50 decrease, fold (Screen N 2): 4.0 fold | EC50 decrease, fold (Screen N 3): 31.9 fold

C[C@@H]1CCN(C(=O)CC#N)C[C@@H]1N(C)c1ncnc2[nH]ccc12 [Tofacitinib (CP-690550)]
EC50 decrease, fold (Screen N 1): 1.1 fold | EC50 decrease, fold (Screen N 2): 1.0 fold | EC50 decrease, fold (Screen N 3): 941.1 fold
